Measured values reported in US20190314256A1, “COSMETIC BASE INCLUDING AMIDE ALCOHOL ESTER, AND COSMETIC” (Kokyu Alcohol Kogyo Co., Ltd., priority 2016, published 2019).

What was measured:
[1] = Odor after standing at 45° C. for 24 hours, judged by 10 monitors; conditions: 10 g sample, incubator 45° C.
[2] = Rough feeling on damaged hair: MMD measured with friction tester KES-SE; set-up: species or system Human; conditions: approx. 0.2 mL oil agent on dry damaged hair

| Substance | Odor (45° C. 24 hours) [1] | rough feeling on the hair (MMD) [2] |
| --- | --- | --- |
| N-cyclohexylbutyramide-4-isostearic acid ester [CHBA-IS] | No odor (No odor: 0 to 2 people judged as “having an odor”) | exhibit an effect to reduce rough feeling on the hair |
| di(cholesteryl/octyldodecyl) lauroylglutamate [Eldew CL-202] | Having an |  |
| N-2 ethylhexylbutyramide 4-isostearic acid ester [EHBA-IS] | No odor (No odor: 0 to 2 people judged as “having an odor”) | exhibit an effect to reduce rough feeling on the hair |
| di(phytosteryl/octyldodecyl) lauroylglutamate [Eldew PS-203] | Having a |  |
